Targets, with sequences 5′ to 3′:
T1: TPP riboswitch RNA three-way junction, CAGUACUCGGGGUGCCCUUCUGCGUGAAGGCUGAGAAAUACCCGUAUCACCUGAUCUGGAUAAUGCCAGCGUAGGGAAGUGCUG. Hit rate about 0.7% of about 24,000 compounds.
T2: PreQ1 riboswitch RNA pseudoknot, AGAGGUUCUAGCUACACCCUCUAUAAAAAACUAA. From B. subtilis. Hit rate about 0.7% of about 24,000 compounds.
T3: SAM-II riboswitch RNA pseudoknot, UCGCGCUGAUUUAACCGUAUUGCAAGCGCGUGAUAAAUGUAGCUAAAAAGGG. Hit rate about 1% of about 21,000 compounds.

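Compounds were printed on reactive glass slides in duplicate spots, a dye-labelled oligonucleotide was laid over them, and the fluorescence left after washing was read. The data file lists only calls. An earlier report of the laboratory on the PreQ1, TPP and SAM-II riboswitches (doi:10.1038/s41467-019-09493-3) used 1 µM RNA for 2 h and required a mean Z-score above 3 (spot signal-to-noise against the whole library), a score well above that on a control array, and duplicate spots agreeing (coefficient of variation under 100); it then also set aside compounds that hit other targets, which this list keeps. The cut-offs behind this list may differ. The calls come from the array alone, and fixing a compound to the slide can hide its binding.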 Key: active = hit, inactive = tested without a hit. This is an unselected part of the compounds tested. A target missing from an entry has no call listed here.

{"compound": "O=P(Oc1ccccc1)(Oc1ccccc1)c1ccccc1", "T1": "inactive", "T2": "inactive", "T3": "inactive"}
{"compound": "CCCc1cc(NCCC(C)C)n2nc3nc(C)cc(C)c3c2n1", "T1": "inactive", "T2": "inactive"}
{"compound": "COc1ccc(N)cc1-n1nnnc1-n1cccn1", "T1": "inactive", "T2": "inactive", "T3": "inactive"}
{"compound": "NCC1Cc2cc(-c3ccc(C(N)=O)cn3)cc(Cl)c2O1", "stereo": "centres undefined", "T1": "inactive", "T2": "inactive", "T3": "active"}
{"compound": "COc1c(N)c(C#N)c(OC)c2c1OCO2", "T1": "inactive", "T2": "inactive", "T3": "inactive"}
{"compound": "Nc1ccn([C@@H]2O[C@H](CO)[C@@H](O)[C@@H]2O)c(=O)n1", "T1": "inactive", "T2": "inactive", "T3": "inactive"}
{"compound": "COc1cc(CN2CCCOCC2)ccc1OCC(O)CN1CCOCC1", "stereo": "centres undefined", "T1": "inactive", "T2": "inactive", "T3": "inactive"}
{"compound": "O=C1NCC2(CCCN(C(=O)c3cn(CCN4CCNCC4)nn3)C2)O1", "stereo": "centres undefined", "T1": "inactive", "T2": "inactive", "T3": "inactive"}
{"compound": "OCCOc1ccc(CNCc2cccnc2)cc1", "T1": "inactive", "T2": "inactive", "T3": "inactive"}
{"compound": "CCOc1ccc(CCCC(=O)NCC(O)c2nccn2C)cc1C", "stereo": "centres undefined", "T1": "inactive", "T2": "inactive", "T3": "inactive"}
{"compound": "S=C(Sc1ccc(Cl)cc1)Sc1ccc(Cl)cc1", "T1": "inactive", "T2": "inactive", "T3": "inactive"}
{"compound": "Cc1nc2n(c(=O)c1CCN1CCC(c3noc4cc(F)ccc34)CC1)CCCC2", "T1": "inactive", "T2": "inactive", "T3": "inactive"}
{"compound": "Cc1cc2c(cc1C1(c3ccc(C(=O)O)cn3)CC1)C(C)(C)CCC2(C)C", "T1": "inactive", "T2": "inactive", "T3": "inactive"}
{"compound": "c1ccc2c(Oc3nc(Nc4ccc(N5CCOCC5)cc4)c4ncn(C5CCCCC5)c4n3)cccc2c1", "T1": "inactive", "T2": "inactive", "T3": "inactive"}
{"compound": "CCC(NC(=O)c1cn(CCN2CCNCC2)nn1)c1cnn(C)c1", "stereo": "centres undefined", "T1": "inactive", "T2": "inactive", "T3": "inactive"}
{"compound": "c1cc(CN2CCCNCCNCCCNCC2)ccc1CN1CCCNCCNCCCNCC1", "T1": "inactive", "T2": "inactive", "T3": "inactive"}
{"compound": "OCc1ccccc1-c1ccc(O)c(-c2ccno2)c1", "T1": "inactive", "T2": "inactive", "T3": "inactive"}
{"compound": "Nc1nc2c(c(NCCC3COc4ccccc4O3)n1)CCNCC2", "stereo": "centres undefined", "T1": "inactive", "T2": "inactive", "T3": "inactive"}
{"compound": "CC[C@@]1(O)CCN(C(=O)Cc2c(C)[nH][nH]c2=O)C[C@H]1O", "T1": "inactive", "T2": "inactive", "T3": "inactive"}
{"compound": "O=C(CCc1ccc(-c2ccc(Cl)cc2)[nH]1)N1CCCC(O)(CO)CC1", "stereo": "centres undefined", "T1": "inactive", "T2": "inactive", "T3": "active"}
{"compound": "O=[N+]([O-])c1ccc(C(O)CN2CCc3ccccc32)cc1", "stereo": "centres undefined", "T1": "inactive", "T2": "inactive", "T3": "inactive"}
{"compound": "CN(C)c1cccc(NC(=O)N2CCNC(c3ccccc3)C2)c1", "stereo": "centres undefined", "T1": "inactive", "T2": "inactive", "T3": "inactive"}
{"compound": "OCCN1CCN(c2ncnc3c2cnn3Cc2ccccc2Cl)CC1", "T1": "inactive", "T2": "inactive", "T3": "inactive"}
{"compound": "O=S(=O)(c1ccc(F)cc1)N(Cc1ccco1)CC(O)Cn1c2ccccc2c2ccccc21", "stereo": "centres undefined", "T1": "inactive", "T2": "inactive", "T3": "inactive"}
{"compound": "Nc1cc(C(F)(F)F)ccc1OCC1CCCO1", "stereo": "centres undefined", "T1": "inactive", "T2": "inactive", "T3": "inactive"}
{"compound": "CC(C)C(=O)Nc1ccc([N+](=O)[O-])c(C(F)(F)F)c1", "T1": "inactive", "T2": "inactive", "T3": "inactive"}
{"compound": "C[C@]12CC[C@H]3[C@@H](CCC4=CC(=O)CC[C@@]43C)[C@H]1CC[C@H]2OC(=O)CCC1CCCC1", "T1": "inactive", "T2": "inactive", "T3": "inactive"}
{"compound": "Cn1c(=O)c2c(-c3ccc(Br)cc3)n(CCCO)cc2n(C)c1=O", "T1": "inactive", "T2": "inactive"}
{"compound": "COc1ccccc1N(CC(O)CN1CCOCC1)S(=O)(=O)c1ccc(C)cc1", "stereo": "centres undefined", "T1": "inactive", "T2": "inactive", "T3": "inactive"}
{"compound": "COc1ccc([C@@H]2C[C@H](c3ccc(F)cc3)n3nc(N)nc3N2)cc1", "T1": "inactive", "T2": "inactive", "T3": "inactive"}
{"compound": "O=C(CC1COCCN1)Nc1ccccc1SCc1cccc(Cl)c1", "stereo": "centres undefined", "T1": "inactive", "T2": "inactive", "T3": "inactive"}
{"compound": "CCN(C(=O)c1ccc(-c2cc[nH]n2)cc1)[C@H]1COC[C@@H]1O", "T1": "inactive", "T2": "inactive", "T3": "inactive"}

The last 4 entries again:

| Compound | T1 | T2 | T3 |
|---|---|---|---|
| `COc1ccccc1N(CC(O)CN1CCOCC1)S(=O)(=O)c1ccc(C)cc1` (centres undefined) | inactive | inactive | inactive |
| `COc1ccc([C@@H]2C[C@H](c3ccc(F)cc3)n3nc(N)nc3N2)cc1` | inactive | inactive | inactive |
| `O=C(CC1COCCN1)Nc1ccccc1SCc1cccc(Cl)c1` (centres undefined) | inactive | inactive | inactive |
| `CCN(C(=O)c1ccc(-c2cc[nH]n2)cc1)[C@H]1COC[C@@H]1O` | inactive | inactive | inactive |

Data from the ROBIN nucleic acid binder screens, doi:10.1002/anie.202211358.